US9216204B2, “Bone targeted therapeutics and methods of making and using the same” (MBC Pharma, Inc., priority 1998, dated 2015)

Experiment: Binding of bisphosphonate conjugates on hydroxyapatite powder (UV absorbency of supernatant)
Description: A. To estimate the binding of BC on hydroxyapatite (mineral component of a bone) UV spectra of BC in buffer pH 7 were recorded before and after treatment with hydroxyapatite. To this end 10 μl of hydroxyapatite suspension in water was added to 1 ml of ˜10^−4 M solution of a BC in 0.1M Tris-HCl buffer, pH 7.0, 0.15 M NaCl and the mixture was intensively shaken for 10 minutes, and centrifuged for 5 minutes at 10,000 rpm in a microcentrifuge. The supernatant was separated and an absorbency spectrum of the supernatant was recorded.

O=c1[nH]c(=O)n(COCCOP(=O)(O)OP(=O)(O)CP(=O)(O)O)cc1F [II, Anhydride of 1-(2′-hydroxyethoxymethyl)-5-fluorouracil-2′-phosphate and methylenediphosphonic acid]
Peak absorbency after hydroxyapatite addition (supernatant after 10 min shaking with hydroxyapatite, pH 7.0): 0.085 | Peak absorbency before hydroxyapatite addition (~10^-4 M in 0.1M Tris-HCl buffer, pH 7.0, 0.15 M NaCl): 0.667
